Measured values from patent US6346249 (LUDWIG INSTITUTE FOR CANCER RESEARCH, dated 2002).
No constants are given. Whether binding was seen depends on the method and setting. Some binding calls cover weakened binding; strength is not graded here.

Key:
[1] = biological target: T1, recombinant human A33 antigen (human, UniProt Q99795 22-233, limits assumed); assay: SPR (Biacore), recombinant human A33 immobilized
T1 construct: also called human antigen A33; immobilized recombinant human A33
T1 sequence (looked up): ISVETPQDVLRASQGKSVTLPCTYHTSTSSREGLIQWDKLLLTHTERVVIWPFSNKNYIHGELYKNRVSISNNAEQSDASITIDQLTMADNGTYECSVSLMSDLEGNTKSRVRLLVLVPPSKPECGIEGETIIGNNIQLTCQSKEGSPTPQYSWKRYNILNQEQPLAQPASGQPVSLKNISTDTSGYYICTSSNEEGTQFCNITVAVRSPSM

[2] = biological target: T2, native human A33 antigen expressed on the cell surface of human colon cancer cell lines (LIM1215, SW1222, NCI-H508) (human) (UniProt Q99795); assay: flow cytometry, indirect immunofluorescence on colon cancer cell lines
T2 sequence (looked up): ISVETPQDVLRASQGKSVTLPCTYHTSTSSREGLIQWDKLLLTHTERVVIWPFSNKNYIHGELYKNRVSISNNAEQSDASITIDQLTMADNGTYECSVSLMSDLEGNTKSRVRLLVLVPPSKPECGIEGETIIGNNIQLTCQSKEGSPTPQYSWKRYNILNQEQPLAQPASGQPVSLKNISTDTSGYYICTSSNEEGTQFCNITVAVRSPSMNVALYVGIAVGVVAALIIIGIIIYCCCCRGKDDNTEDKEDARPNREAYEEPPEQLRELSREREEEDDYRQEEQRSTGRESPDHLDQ

[3] = biological target: T1, recombinant human A33 antigen; assay: ELISA, supernatants of induced clones on immobilized recombinant human A33
[4] = biological target: T2, native human A33 antigen expressed on the cell surface of human colon cancer cell lines (LIM1215, SW1222, NCI-H508) (human); assay: flow cytometry on LIM1215 and SW1222 (A33+) vs HT29 (A33-)

Measured: binding

B1: rabbit Fab 1 (rabbit VH1, VL1; chimeric rabbit/human Fab) (Fab, V domains shown)
VH: QQQVMESGGGLVTLGGSLTLTCKASGIDFSNNGISWVRQAPGKGLEWILYIYPDYGSTDYASWVNGRFTISLDNAQNTVFLQMTSLTAADTATYFCARDRGAYAGSRGTRLDLWGQGTLVTVSS
VL: EFDMTQTPPSLSASVGETVRIRCLASEFLFNGVSWYQQKPGKPPKFLISGASNLESGVPPRFSGSGSGTDYTLTIGGVQAEDVATYYCLGGYSGSSGLTFGAGTNVEIK
notes: Soluble Fab from E. coli; also called rabbit 1; rabbit clone 1
binds: [1] | [2] | [3] | [4]
